Data as given in PubChem BioAssay AID504808 (Drosophila RNAi Screening Center, 2011).

Purpose: 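Chromatin factors that keep E2F targets switched off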 (primary screen)
System: Drosophila S2 cells
Knock-down reagent: long dsRNA against Drosophila genes
Measured: 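Firefly luciferase driven by E2F sites, normalised to Renilla luciferase on the same minimal promoter, measured by plate reader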
Direction: E2F firefly: higher = more E2F reporter activity; Renilla normaliser: higher = more normaliser reporter signal
Call rule: 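Called active if the normalised E2F reporter went up by over 50%; the cutoff is arbitrary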
The screen tested about 21,000 reagents; this is an unselected part of those that have a named target and a result. Over the whole deposit, 18 (0.084%) got an active call. 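Raw counts without plate normalisation, one of two replicates; the ratio scores behind the calls were not deposited.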 Names joined by + are all predicted targets of the reagent. The record does not give: the amount of reagent, the time to read-out.

no.	gene	PubChem SID	E2F firefly, rep 1	Renilla normaliser, rep 1	call
1	CG32733 (retired record)	SID104197273	71780	2309	inactive
2	ppk14 (pickpocket 14)	SID104183030	1.62e5	5500	inactive
3	lncRNA:CR32658 (long non-coding RNA:CR32658)	SID104199194	1.28e5	6156	inactive
4	CG32147	SID104189138	1.27e5	3773	inactive
5	rdx (roadkill)	SID104194318	60181	4164	inactive
6	rdx (roadkill)	SID104196372	1.13e5	5405	inactive
7	Or7a (Odorant receptor 7a)	SID104198483	1.11e5	5035	inactive
8	GstZ2 (Glutathione S transferase Z2)	SID104196271	54290	3144	inactive
9	CG14400	SID104182176	99590	4242	inactive
10	CG14760	SID104186287	1.42e5	4600	inactive
11	ttm50 (tiny tim 50)	SID104198379	1771	844	inactive
12	CG15456	SID104200319	1.34e5	5664	inactive
13	CG6414	SID104198193	1.16e5	5010	inactive
14	Ice2 (Interacts with the C terminus of ELL 2)	SID104194060	71944	5044	inactive
15	Nep5 (Neprilysin 5)	SID104195796	1927	1092	inactive
16	car (carnation)	SID104200108	1.62e5	5753	inactive
17	AP-1gamma (Adaptor Protein complex 1, gamma subunit)	SID104198225	1.01e5	6747	inactive
18	Kdm4B (Lysine demethylase 4B)	SID104186654	4265	171	inactive
19	prom (prominin)	SID104184476	1.12e5	4560	inactive
20	CG8617	SID104187015	1.06e5	4747	inactive
21	Pfrx (6-phosphofructo-2-kinase)	SID104198648	1.42e5	7217	inactive
22	Pfrx (6-phosphofructo-2-kinase)	SID104199107	88915	3332	inactive
23	CG11777	SID104185873	1.50e5	5287	inactive
24	CG32189	SID104189303	1.45e5	3497	inactive
25	CG10576	SID104189537	75106	3290	inactive
26	mip130 (Myb-interacting protein 130)	SID104198367	90408	5996	inactive
27	Or45b (Odorant receptor 45b)	SID104187280	1.52e5	5181	inactive
28	Nufip	SID104190189	81428	3694	inactive
29	vig2	SID104194194	74189	3372	inactive
30	CG12620	SID104181969	1.03e5	4431	inactive
31	Prp6 (pre-mRNA processing factor 6)	SID104190516	70285	3431	inactive
32	tgo (tango)	SID104196869	64700	2975	inactive
33	CG4282	SID104186657	80366	3708	inactive
34	GAPsec (GTPase activating protein, SECIS-dependent read-through)	SID104190356	70513	2958	inactive

Continued (5 carried over from the part before).
no.	gene	PubChem SID	E2F firefly, rep 1	Renilla normaliser, rep 1	call
30	CG12620	SID104181969	1.03e5	4431	inactive
31	Prp6 (pre-mRNA processing factor 6)	SID104190516	70285	3431	inactive
32	tgo (tango)	SID104196869	64700	2975	inactive
33	CG4282	SID104186657	80366	3708	inactive
34	GAPsec (GTPase activating protein, SECIS-dependent read-through)	SID104190356	70513	2958	inactive
35	His2Av (Histone H2A variant)	SID104196494	1739	872	inactive
36	CG34283	SID104193105	44404	3007	inactive
37	CG14983	SID104188233	97325	4368	inactive
38	CG31104	SID104194450	94111	5455	inactive
39	ApepP (Aminopeptidase P)	SID104181658	78158	2799	inactive
40	nur (nemuri)	SID104181134	1.35e5	5651	inactive
41	CG5377	SID104195575	1.38e5	6746	inactive
42	Cpr65Ec (Cuticular protein 65Ec)	SID104190817	88506	3650	inactive
43	Tsp42Ea (Tetraspanin 42Ea)	SID104184774	1.50e5	4672	inactive
44	Tsp42Ea (Tetraspanin 42Ea)	SID104186584	1.57e5	5542	inactive
45	enok (enoki mushroom)	SID104183888	93472	3139	inactive
46	CG13545	SID104183979	1.03e5	4398	inactive
47	CG3630	SID104198291	1631	880	inactive
48	otk2 (off-track2)	SID104187095	96915	4299	inactive
49	Kif3C (Kinesin family member 3C)	SID104197001	42356	3431	inactive
50	Kif3C (Kinesin family member 3C)	SID104197002	72279	4040	inactive
51	CG32017	SID104196975	77956	2707	inactive
52	CG3817	SID104195307	65658	3351	inactive
53	CCAP (Crustacean cardioactive peptide)	SID104195466	1.03e5	5352	inactive
54	msn (misshapen)	SID104187782	1.21e5	3725	inactive
55	msn (misshapen)	SID104188290	90175	4481	inactive
56	ND-ASHI (NADH dehydrogenase (ubiquinone) ASHI subunit)	SID104198083	1.25e5	5656	inactive
57	CG1632	SID104197350	79944	3403	inactive
58	CG1632	SID104197902	1.09e5	5612	inactive
59	COX1 (retired record)	SID104201067	1.42e5	7050	inactive
60	gry (gryzun)	SID104187820	1.30e5	4259	inactive
61	gry (gryzun)	SID104188310	79289	3021	inactive
62	RecQ4 (RecQ4 helicase)	SID104191057	1.26e5	3218	inactive
63	Mgat4b	SID104190048	1.42e5	6557	inactive
64	Bicra	SID104194209	97533	5629	inactive
65	cpb (capping protein beta)	SID104180601	95027	4345	inactive
66	tal-1A + tal-2A + tal-AA + 1 more	SID104192784	78645	2561	inactive
67	Rs1	SID104185737	3183	250	inactive
68	CG4554	SID104184265	76843	3886	inactive
69	Mst57Da + alpha4GT2	SID104193524	97144	2359	inactive
70	e(y)3 (enhancer of yellow 3)	SID104199242	1.55e5	7237	inactive
71	Slu7	SID104194521	66088	6210	inactive
72	slv (saliva)	SID104187477	1.59e5	5218	inactive
73	lambdaTry	SID104185929	93151	4080	inactive
74	baf (barrier to autointegration factor)	SID104182843	1.62e5	4980	inactive
75	CG17377	SID104180742	1.37e5	5645	inactive
76	CG17377	SID104182407	93393	3575	inactive
77	Srp72 (Signal recognition particle 72)	SID104195592	61629	3605	inactive
78	Usp47 (Ubiquitin specific protease 47)	SID104191105	83740	3315	inactive
79	CG32547	SID104199055	75913	2865	inactive
80	CG32547	SID104199057	83996	3113	inactive
81	CG32547	SID104199266	1.58e5	6205	inactive
82	CG32547	SID104199418	1.61e5	5699	inactive
83	alphaTub85E (alpha-Tubulin at 85E)	SID104196691	92242	5493	inactive
84	Axs (Abnormal X segregation)	SID104199125	1.42e5	6710	inactive
